Reference: patent US20200155714A1 (PEKING UNION MEDICAL COLLEGE HOSPITAL, CHINESE ACADEMY OF …, priority 2017, published 2020)

Assay: general procedure: peptide synthesis; DECP/DIPEA

| Substance | step yield (late stage modification step) [%] | conjugation yield (conjugation step) [%] | final purity (method not given) (conjugation step) |
| --- | --- | --- | --- |
| Glu-PEG4-TATE | 68 |  |  |
| NOTA-Bn-p-SCN-PEG4-Glu{PEG4-Cyclo[Arg-Gly-Asp-(D-Tyr)-Lys]}-PEG4-(D-Phe)-Cys-Tyr-(D-Trp)-Lys-Thr-Cys-Thr |  | 13.5 | more than 97% |
